This is one part of the list.

Protein sequences, listed by entry. Tags and fused reporters are not part of them.
UniProt Q0JBA9, entry or part of it: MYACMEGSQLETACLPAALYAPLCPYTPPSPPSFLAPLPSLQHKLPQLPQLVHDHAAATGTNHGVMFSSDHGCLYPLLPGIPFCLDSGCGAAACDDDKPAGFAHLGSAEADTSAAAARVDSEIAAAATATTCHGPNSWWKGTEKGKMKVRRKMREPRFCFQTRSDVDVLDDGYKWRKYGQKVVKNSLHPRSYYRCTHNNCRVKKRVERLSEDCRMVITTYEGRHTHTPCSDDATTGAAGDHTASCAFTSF

In the experiment the target is OsWRKY34 (Oryza sativa, UniProt Q0JBA9 1-250). As to the kind of experiment: protein-binding microarray (RPBM); PBS, 2% BSA, 51.3 ng/ul salmon testes DNA, 50 uM zinc acetate, 200 nM TF, 25 C, 1 h; high values mean tight binding. The conditions noted are these: protein: recombinant; tags: N-terminal polyhistidine and DsRed monomer fusion (pET32a); label: CyDye5-dUTP incorporated in the synthesized complementary strand; 3' TTTTT single-stranded linker to array surface; dsDNA, one strand shown. The gist of the method:
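Using Ni–NTA, transcription factors fused N-terminally to polyhistidine and DsRed were purified after expression in E. coli BL21-CodonPlus. These were incubated at 200 nM with a blocked, double-stranded custom Agilent array for 1 h at 25 °C in a buffer containing 50 µM zinc acetate, and the array was washed. The binding signal is per-feature fluorescence intensity (arbitrary units) on an Axon 4000B scanner.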
Take “ATATTTTTTCTGTGTTTTGCAATCTTCTATTTTACACTTTCGGAGTCACCTAGTGCAG”: the binding signal is 11200 fluorescence intensity (a.u.).
To “ATGCGTGTGGTTCTCCTGTCCGTTCTGTCATTTGGGTTTTCGGAGTCACCTAGTGCAG” belongs 20000 fluorescence intensity (a.u.); to “TTAATTGGTCAGTCATCAGTGTGTGTTAGGAACGTACGTACGGAGTCACCTAGTGCAG”, 8360 fluorescence intensity (a.u.); to “GAGAACTTGGCGGCCACCGCCTGACGGAGCCCGGGGCTCCCGGAGTCACCTAGTGCAG”, 8300 fluorescence intensity (a.u.).
With “GCGTTGACCTATTGACTCGTGTCGCCGTCTCGCCGAGCGACGGAGTCACCTAGTGCAG”, the binding signal was 9440 fluorescence intensity (a.u.).
In the case of “AATGATTCCCGGCCTCTTCATTTCGCTTATGCATATACTTCGGAGTCACCTAGTGCAG” it was 12100 fluorescence intensity (a.u.); in that of “AGTTTTCTCTCCCATTTTGGCTTCGCCCCACCCACTGCCTCGGAGTCACCTAGTGCAG”, 10900 fluorescence intensity (a.u.); in that of “CCGCCCCGACCACCGGCGGCCGCCGACACGATGTCCTCGCCGGAGTCACCTAGTGCAG”, 8660 fluorescence intensity (a.u.).
In the case of “TTCGTGTATTTATGGGGTTAATTTTATTCGATTTTGAGTTCGGAGTCACCTAGTGCAG” it was 11000 fluorescence intensity (a.u.).
In the case of “GTGGGATTTGACTAAAATAATAAATCGGGTATTTCCCTTCCGGAGTCACCTAGTGCAG” it was 8430 fluorescence intensity (a.u.); in that of “TGCGAGCCTTGCTAGTTGCTCCGTCCGCTGTTTCGTGATACGGAGTCACCTAGTGCAG”, 10100 fluorescence intensity (a.u.); in that of “CGAGTCACCCAGCCCAGCCAGCGCGCGCGACACGACGAAACGGAGTCACCTAGTGCAG”, 8910 fluorescence intensity (a.u.).
As for “CCATTATGGTGTTTCTTAGTTGTTTTTTTTGCCTTTTACTCGGAGTCACCTAGTGCAG”, the binding signal is 8470 fluorescence intensity (a.u.).
Take “TTTGTTCCATTTATACGACTAATTTTTCTGTCTACAATTTCGGAGTCACCTAGTGCAG”: the binding signal is 12700 fluorescence intensity (a.u.).
Consider “CTTCACCCATTGCAACACACGTGTATTTTTTCTAGTAAAACGGAGTCACCTAGTGCAG”, for which the binding signal was 11000 fluorescence intensity (a.u.).
In the case of “CCACATATTGTGCTTGTAGCCTAGGCACGACACGGCCCGTCGGAGTCACCTAGTGCAG” it was 8450 fluorescence intensity (a.u.); in that of “CCATTTACACAGCAGGGGCGGAGATATTATTTTAGGTGGGCGGAGTCACCTAGTGCAG”, 8260 fluorescence intensity (a.u.); in that of “TTCTTCCTGCAATGGCCTTATTCTCTACATTAATCTGATTCGGAGTCACCTAGTGCAG”, 9150 fluorescence intensity (a.u.).
Turning to “CATTCATCCATCTGAAGCAGACGCCTTTGCTTTCCTCCTGCGGAGTCACCTAGTGCAG”, the binding signal is 9010 fluorescence intensity (a.u.).
To “TTTCTTTTGCATTTCTTGCTGCAGTACTGTTGCATCAATACGGAGTCACCTAGTGCAG” belongs 9630 fluorescence intensity (a.u.); to “GTACCTCTTGTCCGTATGGCCGCATGTGTCATCCGCGTCGCGGAGTCACCTAGTGCAG”, 9570 fluorescence intensity (a.u.); to “TCCCTTTATTCTTTATGCAAATGTCTCTTTCCTTTCAATCCGGAGTCACCTAGTGCAG”, 10800 fluorescence intensity (a.u.).
In the case of “GACCATACGTACCTCTTTGCCATAGACCTCACCAGTTGCGCGGAGTCACCTAGTGCAG” it was 8930 fluorescence intensity (a.u.).

The values are drawn from article PMC7819943, “Rice protein-binding microarrays: a tool to detect cis-acting elements near promoter regions in rice”.
